From PubChem BioAssay AID463183 (Sanford-Burnham Center for Chemical Genomics, 2010)
Some of the results follow. These are further read-outs of the screen, such as a control signal, another cell line or another target. No call is given for them. The list favours compounds with an active or inconclusive main result.

Experiment: hepatocyte lipid droplet accumulation inhibitors, confirmation, imaging, AML12 mouse hepatocytes, single concentration, high-content (AID 463183);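 note: cells counted after overnight compound exposure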
Conditions: BODIPY lipid droplet imaging, measured here: cell count, cytotoxicity, at 5.2 µM

Row | Compound | cell count
1 | Nc1cc(Cl)c2nonc2c1[N+](=O)[O-] | 1400 cells
2 | CC1CCC/C=C/C2CC(O)CC2C(O)/C=C/C(=O)O1 (stereo unspecified) | 206 cells
3 | CCc1ccc(-n2c(O)c(C(C)=O)c(=O)[nH]c2=O)cc1 (tested in a mixture with another compound) | 1650 cells
4 | COC(=O)C1CN(C#N)N(c2ccc(Cl)cc2)C12c1ccccc1-c1ccccc12 (stereo unspecified) | 37.5 cells
5 | CC(C)OCCCNC(=O)c1c(N)n(CC2CCCO2)c2nc3ccccc3nc12 (stereo unspecified) | 1620 cells
6 | CC1(C)CN=C(Nc2ccc(F)c(Cl)c2)S1 | 1480 cells
